In patent US4491675A, “Hydroformylation process using triarylphosphine and bisphosphine monooxide ligands” (Union Carbide Corporation, priority 1981, dated 1985):
Some results were stated once for a whole list of compounds, not compound by compound.

Experiment: Continuous propylene hydroformylation, long term catalyst stability (Examples 1 to 13, Table I)
Settings: 130° C.; in words, relative comparison of ligand systems of Table I

O=P(CCP(c1ccccc1)c1ccccc1)(c1ccccc1)c1ccccc1 [Example 9, (C6 H5)2 P(CH2)2 P(O)(C6 H5)2]
thermal catalyst stability: varying degrees of catalyst reactivity and stability
